Publication PMC7575565
Results are given in words; binding and its absence hold for the method and conditions named. Binding seen in cells or lysates may run through a third protein. Some entries that bind do so weakly or less than the wild type. For some assays here: Sequences can lack the tags named with a protein.

Protein sequences, listed by entry. Tags and fused reporters are not part of them.
UniProt P08134: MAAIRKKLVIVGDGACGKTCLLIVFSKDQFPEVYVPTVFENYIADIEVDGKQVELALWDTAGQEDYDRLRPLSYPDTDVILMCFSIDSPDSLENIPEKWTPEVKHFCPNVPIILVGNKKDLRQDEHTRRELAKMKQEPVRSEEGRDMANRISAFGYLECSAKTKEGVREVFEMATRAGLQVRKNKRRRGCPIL

Legend:
RNF180-FLAG = target: T1, RNF180-FLAG (UniProt Q86T96); experiment: co-IP; HEK293T cells co-transfected with the plasmids, 5 uM MG132 for 6 h; lysates immunoprecipitated with FLAG M2 affinity gel, washed with lysis buffer, immunoblotting
T1 sequence: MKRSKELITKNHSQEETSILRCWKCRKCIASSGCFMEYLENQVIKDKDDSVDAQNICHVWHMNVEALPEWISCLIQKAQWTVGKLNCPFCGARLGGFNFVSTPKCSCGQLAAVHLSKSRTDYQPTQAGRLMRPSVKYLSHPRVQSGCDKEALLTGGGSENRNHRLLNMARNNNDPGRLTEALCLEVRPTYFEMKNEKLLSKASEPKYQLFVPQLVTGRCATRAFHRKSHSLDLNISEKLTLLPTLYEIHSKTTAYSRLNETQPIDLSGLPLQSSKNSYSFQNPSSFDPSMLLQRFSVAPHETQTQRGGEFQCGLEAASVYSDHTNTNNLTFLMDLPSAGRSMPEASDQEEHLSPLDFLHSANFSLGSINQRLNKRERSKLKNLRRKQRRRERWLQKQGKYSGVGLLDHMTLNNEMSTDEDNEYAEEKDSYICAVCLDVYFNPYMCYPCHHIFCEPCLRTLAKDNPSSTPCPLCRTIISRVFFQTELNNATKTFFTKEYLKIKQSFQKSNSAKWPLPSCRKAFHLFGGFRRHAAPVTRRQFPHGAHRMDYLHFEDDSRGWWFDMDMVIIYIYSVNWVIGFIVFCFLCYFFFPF

RhoC-FLAG = RhoC-FLAG (UniProt P08134); experiment: as above

RhoC (from UniProt P08134 1-193)
binding (RNF180-FLAG): binds

B1: RNF180 (protein, UniProt Q86T96 1-592)
chain: T1 sequence
binding (RhoC-FLAG): binds
